Results as given in PubChem BioAssay AID2597 (National Center for Advancing Translational Sciences (NCATS), 2010).
The shares of active, inactive and inconclusive entries below differ from those in the screen. Potencies beside an inconclusive call are fits to weak or partial responses and may not hold up. Activity calls are given as the source filed them. Calls come from the whole dose curve; as a rule, active = well fitted curve in the direction sought with a large enough effect; inconclusive = small, poorly fitted or top-dose-only effect, or effect the other way, or another doubt; inactive = no such curve, though single readings can be large or run the other way.

Chains of the proteins cited; added tags and fusions are not shown.
UniProt P04062, whole entry N409S: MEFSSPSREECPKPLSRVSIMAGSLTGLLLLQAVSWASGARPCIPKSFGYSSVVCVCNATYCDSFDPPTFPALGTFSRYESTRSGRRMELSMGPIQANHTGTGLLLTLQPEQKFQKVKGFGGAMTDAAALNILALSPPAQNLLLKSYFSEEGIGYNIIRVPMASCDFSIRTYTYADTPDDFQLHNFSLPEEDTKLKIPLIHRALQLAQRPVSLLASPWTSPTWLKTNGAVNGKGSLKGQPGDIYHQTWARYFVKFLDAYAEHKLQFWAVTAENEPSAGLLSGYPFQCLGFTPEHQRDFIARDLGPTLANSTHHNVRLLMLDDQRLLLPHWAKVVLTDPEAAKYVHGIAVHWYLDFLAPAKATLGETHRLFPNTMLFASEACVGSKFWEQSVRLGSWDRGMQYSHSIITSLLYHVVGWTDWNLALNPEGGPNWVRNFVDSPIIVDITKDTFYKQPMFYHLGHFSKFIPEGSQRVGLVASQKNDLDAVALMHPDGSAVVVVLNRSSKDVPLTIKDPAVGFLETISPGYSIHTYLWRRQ

Each compound was assayed against Lysosomal acid glucosylceramidase (Homo sapiens) (UniProt P04062) (assay: qHTS Assay for Inhibitors and Activators of N370S glucocerebrosidase as a Potential Chaperone Treatment of Gaucher Disease: Purified N370S Glucocerebrosidase). Conditions: purified N370S GC, 4-MU-glucoside fluorescence, 40 min; series mostly up to 76.9 µM; activity change, negative = inhibition: at the top concentration.
Excerpt: NIH Chemical Genomics Center [NCGC] NIH Molecular Libraries Probe Production Centers Network [MLPCN] MLPCN Grant: MH086442-01 Assay Submitter (PI): Wei Zheng Glucocerebrosidase (GC) catalyzes the hydrolysis of beta-glucocerebroside to glucose and ceramide in lysosomes. Mutations in the glucocerebrosidase gene result in Gaucher disease, an autosomal recessive lysosomal storage disorder. Many of the mutations encountered in patients with Gaucher disease are missense alterations that may cause misfolding, decreased stability and/or mistrafficking of this lysosomal protein. […] These inhibitors include iminosugar analogs and three non-iminosugar inhibitors identified from a previous HTS of 62,000 compounds with the wild type recombinant enzyme. However, the enhancement of enzyme activity by the chaperone action of an enzyme inhibitor must be balanced against the direct inhibition of the enzyme. An enzyme activator could also function as a chaperone by binding to the enzyme and helping to correct its misfolding and mistrafficking. While activators for GC have not yet been identified, they may have better therapeutic potential than inhibitors. Therefore the discovery and development of chemical activators may provide a new strategy for the chaperone therapy. We have optimized a new assay using N370S mutant GC derived from the spleen of a Gaucher patient. […] In addition, the MLPCN compound library has expanded, which increases the chance of finding new and better probes. This assay characterizes compound activity using purified mutant enzyme instead of tissue homogenate. Compound activity differences may be due to the absence of endogenous cofactors found in tissue homogenate.
NCGC Assay Protocol Summary: This is a fluorogenic enzyme assay with 4-methylumbelliferyl-beta-D-glucopyranoside as the substrate and purified N370S glucocerebrosidase as the enzyme preparation. Upon the hydrolysis of this fluorogenic substrate, the resulting product, […] which can be detected by a standard fluorescence plate reader. Data were normalized to the controls for basal activity (without enzyme) and 100% activity (with enzyme). The AC50 values were determined from concentration-response data modeled with the standard Hill equation. Assay buffer: 50 mM citric acid (titrated with potassium phosphate to pH 5.0), 100 mM potassium chloride, 10 mM sodium chloride, 1 mM magnesium chloride, 0.01% Tween-20. 1536-well assay protocol: (1) Add 2 ul/well of glucocerebrosidase enzyme solution (5 nM final) (2) Add 23 nL compounds in DMSO solution. The final titration was 0.5 nM to 58 uM. (3) Add 2 ul of substrate (1 mM final) (4) Incubate at 37C for 40 min. (5) Add 2 ul stop solution (1M NaOH and 1M Glycine mixture, pH 10) (6) Detect the assay plate in a ViewLux plate reader (PerkinElmer) with Ex=365 nm and Em=440nm. Keywords: Glucocerebrosidase, beta-glucosidase, Gaucher Disease, pharmacological chaperone, chaperone therapy, high throughput screening, glucocerebrosidase inhibitor, MLSMR, MLSCN, NIH Roadmap, qHTS and NCGC

`Cc1ccc(Cl)cc1NC(=O)c1ccccc1OCC(=O)Nc1ccc(Cl)cc1` was tested. Which Potency did it give?
Its Potency is inconclusive: 3.98 µM [activator, full curve, poor fit].

`CC(C)(C)C(=O)OCCNc1nc(-c2ccccc2)nc2ccccc12` was tested. Which Potency did it give?
Its Potency is active: 8.91 µM.

With `Cc1cc(C)cc(N(CC(=O)NC2CCCCCC2)S(=O)(=O)c2c(C)[nH]c(=O)[nH]c2=O)c1` as the compound, how does the Potency read?
Its Potency is active: 1.58 µM.

With `Cc1cc(C)n2ncc(C(=O)Nc3ccc(Cl)c(Cl)c3)c2n1` as the compound, how does the Potency read?
The Potency was inconclusive: 17.8 µM [activator, partial curve].

Which “activity change, negative = inhibition” value does the source give for `Cc1ccc(S(=O)(=O)N2CCN(c3nc(-c4ccc(F)cc4)nc4cc(Cl)ccc34)CC2)cc1` here?
Its value is inactive: -2.41%.

How did the Potency turn out when `O=C(Nc1cnn(Cc2ccc(F)cc2)c1)c1cnn2c(C(F)F)cc(-c3ccccc3)nc12` was run?
Its Potency is inconclusive: 25.1 µM [activator, partial curve].

`CC(C)C(C)NC(=O)CSc1nc2scc(-c3ccco3)c2c(=O)n1-c1ccccc1` (centres undefined) was tested. Which “activity change, negative = inhibition” value did it give?
Its value is inactive: 2.6% [at 57.5 µM].

Which Potency does the source give for `S=C(NCCCc1cnc[nH]1)NCCCN(Cc1ccc(Cl)c(Cl)c1)c1ccc(Br)cn1` here?
The Potency was active: 2.51 µM.

Which “activity change, negative = inhibition” value does the source give for `N#Cc1ccc(S(=O)(=O)N2CCN(c3nc(-c4cccs4)nc4ccccc34)CC2)cc1` here?
Its value is inactive: 0.866% [at 57.5 µM].

Which Potency does the source give for `CCC(C)c1ccc(NC(=O)c2cnn3c(C(F)F)cc(C)nc23)cc1` (centres undefined) here?
Its Potency is inconclusive: 15.8 µM [activator, partial curve].

`COc1ccccc1C(=O)COC(=O)c1ccccc1OCC(=O)Nc1ccc(SC(F)F)cc1` was tested. Which Potency did it give?
Its Potency is inconclusive: 10 µM [activator, full curve].

For `Cc1ccc(NC(=O)COc2ccccc2C(=O)Nc2ccccc2)cc1Cl`, which Potency is on record?
The Potency was inconclusive: 7.94 µM [activator, full curve].

`O=S(=O)(c1cccs1)N1CCN(c2nc(-c3cccs3)nc3ccccc23)CC1` was tested. Which “activity change, negative = inhibition” value did it give?
Its value is inactive: 8.37%.

Which Potency does the source give for `O=C(COc1ccccc1C(=O)c1cnn(-c2ccccc2)c1)Nc1ccccc1` here?
Its Potency is inconclusive: 14.1 µM [activator, partial curve].
